The target in this test is Human chemokine receptor CXCR4 expressed in Chem-1 cells (Homo sapiens, UniProt P61073). Description: biochemical. The protocol: Non-specific binding was estimated in the presence of 30 nM SDF-1α.

The chains behind the UniProt entries cited, without tags or fusion partners.
UniProt P61073, whole entry: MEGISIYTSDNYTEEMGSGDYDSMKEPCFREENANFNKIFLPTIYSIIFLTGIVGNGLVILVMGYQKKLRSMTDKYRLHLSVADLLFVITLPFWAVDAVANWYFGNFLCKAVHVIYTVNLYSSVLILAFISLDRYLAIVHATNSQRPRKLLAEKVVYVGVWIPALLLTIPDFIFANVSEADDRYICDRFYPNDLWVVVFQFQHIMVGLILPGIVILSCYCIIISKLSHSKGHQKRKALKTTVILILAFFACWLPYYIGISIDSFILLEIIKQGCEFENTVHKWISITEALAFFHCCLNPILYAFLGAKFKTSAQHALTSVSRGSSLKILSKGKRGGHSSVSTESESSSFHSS

In turn, `CC(=O)N[C@H]1CSCc2ccccc2CSC[C@@H](C(=O)N[C@@H](CCCCNC(C)C)C(=O)NCCOCCOCCOCCOCCOCCOCCC(=O)N[C@@H](CSC2CC(=O)N(CCC(=O)O[C@@H](C(=O)O[C@H]3C[C@@]4(O)[C@@H](OC(=O)c5ccccc5)[C@@H]5[C@]6(OC(C)=O)CO[C@@H]6C[C@H](O)[C@@]5(C)C(=O)[C@H](OC(C)=O)C(=C3C)C4(C)C)[C@@H](NC(=O)c3ccccc3)c3ccccc3)C2=O)C(N)=O)NC(=O)CNC(=O)[C@H](Cc2ccc3ccccc3c2)NC(=O)[C@@H](CCCNC(=N)N)NC(=O)[C@H](CCCCNC(C)C)NC(=O)[C@H](Cc2ccc(O)cc2)NC1=O` (stereo partly shown) [MLB-1707] came in with an IC50 of 2.3 nM and a Kb of 0.7 nM.
For `CC(=O)O[C@H]1C(=O)[C@@]2(C)[C@H]([C@H](OC(=O)c3ccccc3)[C@]3(O)C[C@H](OC(=O)[C@H](OC(=O)CCN4C(=O)CC(SC[C@H](NC(=O)CCOCCOCCOCCOCCOCCOCCNC(=O)[C@H](CCCCNC(C)C)NC(=O)[C@H]5CCC(=O)N[C@@H](Cc6ccccc6)C(=O)N[C@@H](Cc6ccc(O)cc6)C(=O)N[C@@H](CCCCNC(C)C)C(=O)N[C@H](CCCNC(=N)N)C(=O)N[C@@H](Cc6ccc7ccccc7c6)C(=O)NCC(=O)N5)C(=O)NCC(N)=O)C4=O)[C@@H](NC(=O)c4ccccc4)c4ccccc4)C(C)=C1C3(C)C)[C@]1(OC(C)=O)CO[C@@H]1C[C@@H]2O` (stereo partly drawn) [MLB-1713, cyclo[Phe-Tyr-Lys(iPr)-(D-Arg)-2Nal-Gly-(D-Glu)]-Lys(iPr)-(mini-PEG6)-Cys(S-paclitaxel)-Gly-NH2], in that order: 0.96 nM and 0.29 nM.

Broadly, the IC50 is the concentration that inhibits the measured activity by half. Lower therefore signals inhibition by little substance.

The record behind these values is patent US10639379B2, “High affinity CXCR4 selective binding conjugate and method for using the same” (Mainline Biosciences LLC, priority 2017, dated 2020).
